PubChem BioAssay AID1159578 – Peter MacCallum Cancer Centre | 2015

Screen: 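Knock-downs that alter how fast lymphatic endothelial cells migrate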 (primary screen)
Cells: human lymphatic endothelial cells
Knock-down reagent: siRNA pool against human genes, 40 nM
Duration: 48 h after transfection
Detection: 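High-content imaging of dye-stained cells in a scratch assay measures filled wound area and nuclei per well; duplicate means given as ratio to mock and robust z-score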
Scale: migration robust z-score: higher = faster migration into the scratch; migration relative to mock: higher = more scratch area covered than mock; nuclei per well: higher = more cells in the well
Hit rule: 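Migration changed when robust z exceeds 2 or falls below -2 and mean nuclei number is at least 3300; otherwise not called changed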
Meaning of the calls: active = migration changed; inactive = no migration change, or too few cells
The whole screen tested about 18,000 reagents; shown is a random part of them. Over the whole deposit, about 1,030 (5.7%) are marked active. 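Inactive calls also include pools with fewer than 3300 nuclei, whose migration was not assessed.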 Raw values are not corrected between plates.

The opening 6 records, to show the layout:
no.	target gene	migration robust z-score	migration class with cell-count check	migration relative to mock	nuclei per well, duplicate mean	call
1	GAB3	0.77	migration z between -2 and 2; enough cells	1.09	6074	inactive
2	CST1	-5.96	under 3300 nuclei; migration not judged	-0.66	0	inactive
3	PRNP	2.31	migration z above 2; enough cells	1.48	4935	active
4	TBX21	1.14	migration z between -2 and 2; enough cells	1.02	4426	inactive
5	CRAMP1	0.3	migration z between -2 and 2; enough cells	0.96	5612	inactive
6	KBTBD8	0.98	migration z between -2 and 2; enough cells	1.15	5788	inactive

The listing, from the start:
no.	target gene	migration robust z-score	migration class with cell-count check	migration relative to mock	nuclei per well, duplicate mean	call
1	GAB3	0.77	migration z between -2 and 2; enough cells	1.09	6074	inactive
2	CST1	-5.96	under 3300 nuclei; migration not judged	-0.66	0	inactive
3	PRNP	2.31	migration z above 2; enough cells	1.48	4935	active
4	TBX21	1.14	migration z between -2 and 2; enough cells	1.02	4426	inactive
5	CRAMP1	0.3	migration z between -2 and 2; enough cells	0.96	5612	inactive
6	KBTBD8	0.98	migration z between -2 and 2; enough cells	1.15	5788	inactive
7	CALCRL	-0.05	migration z between -2 and 2; enough cells	0.8	8075	inactive
8	ACVR2B	-0.26	migration z between -2 and 2; enough cells	0.76	4989	inactive
9	POU4F1	0.26	migration z between -2 and 2; enough cells	0.86	3975	inactive
10	GPA33	-0.17	migration z between -2 and 2; enough cells	0.84	6111	inactive
11	HSPA4	0.6	migration z between -2 and 2; enough cells	0.92	4988	inactive
12	ALG11	0.44	migration z between -2 and 2; enough cells	1	5161	inactive
13	S100A12	0.5	migration z between -2 and 2; enough cells	1.02	5072	inactive
14	KRTAP19-2	-0.36	migration z between -2 and 2; enough cells	0.8	6957	inactive
15	FAM163A	0.84	migration z between -2 and 2; enough cells	1.1	6442	inactive
16	EI24	0.34	migration z between -2 and 2; enough cells	0.97	6245	inactive
17	CAPN12	-1.53	migration z between -2 and 2; enough cells	0.51	3728	inactive
18	MYOC	1.08	migration z between -2 and 2; enough cells	1.17	5474	inactive
19	BRCA1	-0.44	migration z between -2 and 2; enough cells	0.72	4316	inactive
20	RNF175	1.33	migration z between -2 and 2; enough cells	1.06	6768	inactive
21	ACD	0.08	migration z between -2 and 2; enough cells	0.91	5733	inactive
22	PTDSS1	-2.1	migration z below -2; enough cells	0.4	3752	active
23	ANXA11	1.25	migration z between -2 and 2; enough cells	1.21	6076	inactive
24	CENPK	0.24	migration z between -2 and 2; enough cells	0.95	4918	inactive
25	SP3	0.36	migration z between -2 and 2; enough cells	0.88	5518	inactive
26	TCF21	0.1	migration z between -2 and 2; enough cells	0.82	5535	inactive
27	SLC25A31	2.06	migration z above 2; enough cells	1.42	6398	active
28	SLC12A9	-0.1	migration z between -2 and 2; enough cells	0.78	4692	inactive
29	OSBPL8	0.58	migration z between -2 and 2; enough cells	1.04	5985	inactive
30	KRTAP19-3	-0.65	migration z between -2 and 2; enough cells	0.72	5156	inactive
31	PC	0.18	migration z between -2 and 2; enough cells	0.94	5197	inactive
32	REEP3	-1.42	migration z between -2 and 2; enough cells	0.52	4874	inactive
33	MYL12B	-0.35	migration z between -2 and 2; enough cells	0.8	5809	inactive
34	RAB26	-0.2	migration z between -2 and 2; enough cells	0.84	4140	inactive
35	SYT16	-0.2	migration z between -2 and 2; enough cells	0.83	5768	inactive
36	UAP1L1	0.42	migration z between -2 and 2; enough cells	0.99	6734	inactive
37	ICAM1	0.75	migration z between -2 and 2; enough cells	0.95	4444	inactive
38	AMOT	-0.64	migration z between -2 and 2; enough cells	0.74	5551	inactive
39	VPS18	-0.11	migration z between -2 and 2; enough cells	0.78	5722	inactive
40	TRIM4	0.8	migration z between -2 and 2; enough cells	0.96	5226	inactive
41	TMT1A	-0.67	migration z between -2 and 2; enough cells	0.71	4524	inactive
42	KRTAP3-2	-1.14	migration z between -2 and 2; enough cells	0.59	5954	inactive
43	ZNF212	-1.18	migration z between -2 and 2; enough cells	0.58	5146	inactive
44	MAGEH1	0.98	migration z between -2 and 2; enough cells	1.14	4356	inactive
45	ZNF701	-0.11	migration z between -2 and 2; enough cells	0.86	6515	inactive
46	ACSF2	0.47	migration z between -2 and 2; enough cells	0.9	5684	inactive
47	SAXO1	-0.1	migration z between -2 and 2; enough cells	0.86	5997	inactive
48	OR5B21	-1.03	migration z between -2 and 2; enough cells	0.62	5590	inactive
49	VPS13C	-0.36	migration z between -2 and 2; enough cells	0.79	5870	inactive
50	RBM18	-1.64	migration z between -2 and 2; enough cells	0.46	6158	inactive
51	PCDH20	0.4	migration z between -2 and 2; enough cells	0.98	6284	inactive
52	EPAS1	0.76	migration z between -2 and 2; enough cells	0.95	6354	inactive
53	SNCB	0.14	migration z between -2 and 2; enough cells	0.92	4788	inactive
54	NOS3	-1.38	migration z between -2 and 2; enough cells	0.54	6579	inactive
55	TTBK1	-1.27	migration z between -2 and 2; enough cells	0.56	4830	inactive
56	SIRPA	-1.4	migration z between -2 and 2; enough cells	0.53	4178	inactive
57	LGI2	1.54	migration z between -2 and 2; enough cells	1.29	6284	inactive
58	RITA1	0.22	migration z between -2 and 2; enough cells	0.94	6324	inactive
59	GGT5	0.13	migration z between -2 and 2; enough cells	0.83	5102	inactive
60	PEX5	0.68	migration z between -2 and 2; enough cells	0.94	5668	inactive
61	RABGGTA	0.41	migration z between -2 and 2; enough cells	0.99	6006	inactive
62	OLFM4	-0.84	migration z between -2 and 2; enough cells	0.66	4038	inactive
63	TOP6BL	2.16	migration z above 2; enough cells	1.44	6334	active
64	ZNF692	0.64	migration z between -2 and 2; enough cells	1.05	6649	inactive
65	CDK11B	-2.13	under 3300 nuclei; migration not judged	0.4	3069	inactive
66	KL	0.46	migration z between -2 and 2; enough cells	0.9	5456	inactive
67	PLEKHA3	-0.01	migration z between -2 and 2; enough cells	0.88	6018	inactive
68	CCNJ	0.78	migration z between -2 and 2; enough cells	1.09	5674	inactive
69	NT5DC1	0.36	migration z between -2 and 2; enough cells	0.98	5286	inactive
70	RNF214	0.76	migration z between -2 and 2; enough cells	0.95	6356	inactive
71	LSM4	2.15	migration z above 2; enough cells	1.44	6755	active
72	MYL6	-0.18	migration z between -2 and 2; enough cells	0.77	6974	inactive
73	TBC1D25	2.27	migration z above 2; enough cells	1.48	5234	active
